PubChem BioAssay AID1159592 | NIAID – 2016

Purpose: 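Toll-like receptor pathway genes that R848 needs to send NF-kB into the nucleus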
Cell system: RAW264.7 macrophages from mouse bearing reporters for p65 (GFP) and the Tnf promoter (mCherry)
Reagents: single siRNA against mouse genes
Time to read-out: 48 to 72 hours after siRNA transfection
Conditions: R848 TLR ligand for 40 minutes before fixation; dose not given
Measured: 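Replicate mean of robust z-score relative to negative-control wells, after median/MAD scaling by plate, for the imaged GFP-p65 nuclear-to-cytoplasmic ratio 40 minutes after R848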
Direction: NF-kB translocation z-score: higher = more p65 moved into the nucleus than in negative-control wells
Hit rule: 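Active when the replicate-mean z lies above 1.5 or below -1.5; the depositor also grades absolute z in steps of 1, 1.5, 2 and 2.5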
Meaning of the calls: active = strong change, either direction; inactive = little change
This is an unselected part of 756 reagents tested. 147 of them (19%) count as active. 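Active covers both loss and gain of p65 entry; negative z means weaker NF-kB activation, positive means more nuclear p65.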 Unmarked entries are inactive. The numbers tell different reagents against one gene apart. Reagent sequences are not shown. The record does not give: the amount of reagent.

gene | reagent no. | NF-kB translocation z-score, replicate mean
Itgam | 1 | -0.389
Itgam | 2 | -0.289
Itgam | 3 | 0.0971
Itgam | 4 | -0.286
Itgam | 5 | -0.209
Itgam | 6 | -1.52 (active)
Ikbkg | 1 | -2.22 (active)
Ikbkg | 2 | -2.06 (active)
Ikbkg | 3 | -0.204
Ikbkg | 4 | -2.64 (active)
Ikbkg | 5 | -2.44 (active)
Ikbkg | 6 | -0.00725
Map2k2 | 1 | -0.0156
Map2k2 | 2 | -1.34
Map2k2 | 3 | -1.02
Map2k2 | 4 | -1.04
Map2k2 | 5 | -1.21
Map2k2 | 6 | -0.846
Irf5 | 1 | -1.22
Irf5 | 2 | -0.199
Irf5 | 3 | -0.404
Irf5 | 4 | 0.615
Irf5 | 5 | 0.613
Irf5 | 6 | -2.75 (active)
Traf3 | 1 | -0.034
Traf3 | 2 | -0.69
Traf3 | 3 | 0.486
Traf3 | 4 | -0.711
Traf3 | 5 | -1.58 (active)
Traf3 | 6 | 1.24
Pik3cg | 1 | -0.424
Pik3cg | 2 | -2.38 (active)
Pik3cg | 3 | -1.25
Pik3cg | 4 | 0.395
Pik3cg | 5 | -0.723
Pik3cg | 6 | -2.38 (active)
Nfkbib | 1 | -1.3
Nfkbib | 2 | 0.17
Nfkbib | 3 | 0.88
Nfkbib | 4 | -0.639
Nfkbib | 5 | -1.83 (active)
Nfkbib | 6 | -1.67 (active)
Tlr6 | 1 | 0.0128
Tlr6 | 2 | 0.0373
Tlr6 | 3 | -1.38
Tlr6 | 4 | 0.028
Tlr6 | 5 | 0.856
Tlr6 | 6 | 0.0379
Stat1 | 1 | 0.543
Stat1 | 2 | 1.19
Stat1 | 3 | 0.262
Stat1 | 4 | 0.564
Stat1 | 5 | 0.399
Stat1 | 6 | -1.11
Tollip | 1 | 0.661
Tollip | 2 | -0.818
Tollip | 3 | -2.9 (active)
Tollip | 4 | -0.623
Tollip | 5 | 0.341
Tollip | 6 | -1.21
Chuk | 1 | 0.554
Chuk | 2 | -2.16 (active)
Chuk | 3 | 0.12
Chuk | 4 | -1.94 (active)
Chuk | 5 | -1.73 (active)
Chuk | 6 | 1.09
Irak4 | 1 | -0.129
Irak4 | 2 | -3.77 (active)
Irak4 | 3 | -2.67 (active)
Irak4 | 4 | -1.91 (active)
Irak4 | 5 | -1.18
Irak4 | 6 | -0.0506
Pik3cb | 1 | -0.341
Pik3cb | 2 | -1.99 (active)
Pik3cb | 3 | -0.38
Pik3cb | 4 | -0.595
Pik3cb | 5 | -3.71 (active)
Pik3cb | 6 | 0.121
Ikbkb | 1 | 0.985
Ikbkb | 2 | -1.21
Ikbkb | 3 | -2.21 (active)
Ikbkb | 4 | -0.785
Ikbkb | 5 | -2.05 (active)
Ikbkb | 6 | -2.03 (active)
Dab2ip | 1 | 0.449
Dab2ip | 2 | -0.0586
Dab2ip | 3 | -0.994
Dab2ip | 4 | -2.43 (active)
Dab2ip | 5 | -0.915
Dab2ip | 6 | -0.702
Ube2n | 1 | -0.161
Ube2n | 2 | -1.09
Ube2n | 3 | 0.455
Ube2n | 4 | 0.23
Ube2n | 5 | -1.42
Ube2n | 6 | 0.101
Map2k6 | 1 | -1.56 (active)
Map2k6 | 2 | -1.26
Map2k6 | 3 | -0.0899
Map2k6 | 4 | 0.755
Map2k6 | 5 | -1.52 (active)
Map2k6 | 6 | 0.0324
Irak1 | 1 | -1.78 (active)
Irak1 | 2 | -0.068
Irak1 | 3 | -1.19
Irak1 | 4 | -1.23
Irak1 | 5 | 0.0191
Irak1 | 6 | -0.757
Cxcl9 | 1 | -0.467
Cxcl9 | 2 | -1.77 (active)
Cxcl9 | 3 | -0.624
Cxcl9 | 4 | 0.225
Cxcl9 | 5 | -0.209
Cxcl9 | 6 | -0.0338
Pik3ca | 1 | -1.52 (active)
Pik3ca | 2 | -0.106
Pik3ca | 3 | -0.0134
Pik3ca | 4 | 0.146
Pik3ca | 5 | -1.92 (active)
Pik3ca | 6 | -0.488
Map2k3 | 1 | 0.244
Map2k3 | 2 | -0.271
Map2k3 | 3 | -0.0659
Map2k3 | 4 | -1.11
Map2k3 | 5 | 0.595
Map2k3 | 6 | -0.165
Tirap | 1 | 0.29
Tirap | 2 | 0.222
Tirap | 3 | 0.504
Tirap | 4 | 0.149
Tirap | 5 | 0.0137
Tirap | 6 | -0.06
Map3k14 | 1 | -0.251
Map3k14 | 2 | 0.315
Map3k14 | 3 | -0.618
Map3k14 | 4 | -0.788
Map3k14 | 5 | -3.49 (active)
Map3k14 | 6 | -1.47
Map2k1 | 1 | 0.641
Map2k1 | 2 | 0.182
Map2k1 | 3 | -0.583
Map2k1 | 4 | 1.78 (active)
Map2k1 | 5 | 0.584
Map2k1 | 6 | 1.05

Records listed so far whose target name begins with C or c:
gene | reagent no. | NF-kB translocation z-score, replicate mean
Chuk | 1 | 0.554
Chuk | 2 | -2.16 (active)
Chuk | 3 | 0.12
Chuk | 4 | -1.94 (active)
Chuk | 5 | -1.73 (active)
Chuk | 6 | 1.09
Cxcl9 | 1 | -0.467
Cxcl9 | 2 | -1.77 (active)
Cxcl9 | 3 | -0.624
Cxcl9 | 4 | 0.225
Cxcl9 | 5 | -0.209
Cxcl9 | 6 | -0.0338
